Results as given in the supplement of paper PMC10702517.
± gives the standard deviation.

Test: chemical recovery from spiked human plasma; higher = better extraction
Settings: pooled human plasma; extraction method: SPE only (HLB 96-well)
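Further: plasma spiked with over 400 chemicals, quantified by LC-HRMS and GC-HRMS via internal standard calibration against matrix-matched unspiked plasma extracts plus spike mix.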

Structure (SMILES): CC(C)(C)c1ccc(O)cc1 [4-tert-Butylphenol]
- chemical recovery: 23 ± 4.3%
